These are yes or no findings as the source states them, for the method shown. Binding seen in cells or lysates may run through a third protein. Some entries that bind do so weakly or less than the wild type. For some assays here: Sequences can lack the tags named with a protein.
T1: Flag-Pol ι (DNA polymerase iota, wild type) (UniProt Q9UNA4)
T1 sequence: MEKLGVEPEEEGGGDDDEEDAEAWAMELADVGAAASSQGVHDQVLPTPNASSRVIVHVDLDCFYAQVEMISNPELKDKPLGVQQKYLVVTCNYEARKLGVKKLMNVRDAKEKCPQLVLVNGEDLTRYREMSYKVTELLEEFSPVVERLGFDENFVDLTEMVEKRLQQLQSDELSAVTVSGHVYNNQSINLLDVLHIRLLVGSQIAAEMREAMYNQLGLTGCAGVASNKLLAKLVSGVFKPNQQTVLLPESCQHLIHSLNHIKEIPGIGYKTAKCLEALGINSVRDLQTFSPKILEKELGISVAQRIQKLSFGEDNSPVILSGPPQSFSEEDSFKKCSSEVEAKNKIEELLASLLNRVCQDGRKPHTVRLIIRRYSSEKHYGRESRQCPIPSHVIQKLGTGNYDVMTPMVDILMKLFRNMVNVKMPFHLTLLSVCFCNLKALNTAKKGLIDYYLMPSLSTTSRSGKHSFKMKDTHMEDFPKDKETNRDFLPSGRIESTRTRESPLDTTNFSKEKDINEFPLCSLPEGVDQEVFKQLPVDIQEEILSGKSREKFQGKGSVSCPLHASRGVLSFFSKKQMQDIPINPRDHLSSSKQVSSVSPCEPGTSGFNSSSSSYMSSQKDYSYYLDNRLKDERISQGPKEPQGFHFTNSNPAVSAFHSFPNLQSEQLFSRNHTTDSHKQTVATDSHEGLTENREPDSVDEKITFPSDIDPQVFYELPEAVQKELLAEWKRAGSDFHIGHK

Sequences of proteins named here, by UniProt entry; tags and fusion partners are left off.
UniProt Q16665: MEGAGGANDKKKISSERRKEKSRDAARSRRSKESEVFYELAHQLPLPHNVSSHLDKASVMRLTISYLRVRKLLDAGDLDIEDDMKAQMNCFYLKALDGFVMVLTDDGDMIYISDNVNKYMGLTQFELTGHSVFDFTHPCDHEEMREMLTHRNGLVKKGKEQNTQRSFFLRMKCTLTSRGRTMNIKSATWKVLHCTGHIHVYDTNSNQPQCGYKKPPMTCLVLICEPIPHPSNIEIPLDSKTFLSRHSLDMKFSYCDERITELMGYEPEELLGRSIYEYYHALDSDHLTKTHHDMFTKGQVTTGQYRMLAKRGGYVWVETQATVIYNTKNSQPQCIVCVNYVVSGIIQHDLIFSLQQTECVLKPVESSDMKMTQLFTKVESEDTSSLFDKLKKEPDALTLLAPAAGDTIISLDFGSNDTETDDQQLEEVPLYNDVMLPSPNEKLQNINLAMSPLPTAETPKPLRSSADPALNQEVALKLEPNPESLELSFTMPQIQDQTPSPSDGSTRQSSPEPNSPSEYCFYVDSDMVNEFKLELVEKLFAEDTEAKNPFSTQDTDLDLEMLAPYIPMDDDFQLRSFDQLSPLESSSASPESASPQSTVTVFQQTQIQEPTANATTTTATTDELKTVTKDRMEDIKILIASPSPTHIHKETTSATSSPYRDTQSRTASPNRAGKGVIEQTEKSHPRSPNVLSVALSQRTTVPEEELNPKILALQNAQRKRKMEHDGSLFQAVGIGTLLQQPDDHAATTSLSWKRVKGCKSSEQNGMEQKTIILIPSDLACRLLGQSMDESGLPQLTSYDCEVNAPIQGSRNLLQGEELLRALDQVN
UniProt Q93009: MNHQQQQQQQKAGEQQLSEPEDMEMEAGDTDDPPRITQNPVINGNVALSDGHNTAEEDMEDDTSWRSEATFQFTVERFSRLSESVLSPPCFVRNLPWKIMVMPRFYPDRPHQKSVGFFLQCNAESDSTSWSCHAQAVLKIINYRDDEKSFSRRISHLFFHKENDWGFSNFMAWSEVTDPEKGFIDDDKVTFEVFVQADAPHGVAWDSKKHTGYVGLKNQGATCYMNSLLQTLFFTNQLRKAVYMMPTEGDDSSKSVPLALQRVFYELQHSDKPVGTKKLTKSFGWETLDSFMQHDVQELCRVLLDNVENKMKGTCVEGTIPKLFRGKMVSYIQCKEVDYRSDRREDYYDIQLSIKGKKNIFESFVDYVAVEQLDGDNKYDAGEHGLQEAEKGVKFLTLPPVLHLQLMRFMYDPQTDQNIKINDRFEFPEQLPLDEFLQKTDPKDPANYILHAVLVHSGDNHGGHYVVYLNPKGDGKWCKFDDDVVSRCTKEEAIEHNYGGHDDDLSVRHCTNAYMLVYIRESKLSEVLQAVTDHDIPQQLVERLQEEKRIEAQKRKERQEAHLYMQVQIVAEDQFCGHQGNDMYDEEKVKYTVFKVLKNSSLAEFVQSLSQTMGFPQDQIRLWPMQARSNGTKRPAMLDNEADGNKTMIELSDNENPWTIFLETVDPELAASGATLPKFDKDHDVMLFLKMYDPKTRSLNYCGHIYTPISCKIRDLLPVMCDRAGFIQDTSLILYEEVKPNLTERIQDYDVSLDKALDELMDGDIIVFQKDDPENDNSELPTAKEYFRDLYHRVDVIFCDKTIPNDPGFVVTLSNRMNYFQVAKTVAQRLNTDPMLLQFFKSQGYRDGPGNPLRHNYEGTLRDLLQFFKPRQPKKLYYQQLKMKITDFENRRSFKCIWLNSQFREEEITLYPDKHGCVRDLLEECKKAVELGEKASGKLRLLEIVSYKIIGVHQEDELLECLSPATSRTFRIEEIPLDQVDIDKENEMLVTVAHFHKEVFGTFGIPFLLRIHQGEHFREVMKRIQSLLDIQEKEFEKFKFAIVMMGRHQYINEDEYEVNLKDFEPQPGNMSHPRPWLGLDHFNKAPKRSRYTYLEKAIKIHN

T2: GST-tagged Pol ι (UniProt Q9UNA4)
T2 sequence: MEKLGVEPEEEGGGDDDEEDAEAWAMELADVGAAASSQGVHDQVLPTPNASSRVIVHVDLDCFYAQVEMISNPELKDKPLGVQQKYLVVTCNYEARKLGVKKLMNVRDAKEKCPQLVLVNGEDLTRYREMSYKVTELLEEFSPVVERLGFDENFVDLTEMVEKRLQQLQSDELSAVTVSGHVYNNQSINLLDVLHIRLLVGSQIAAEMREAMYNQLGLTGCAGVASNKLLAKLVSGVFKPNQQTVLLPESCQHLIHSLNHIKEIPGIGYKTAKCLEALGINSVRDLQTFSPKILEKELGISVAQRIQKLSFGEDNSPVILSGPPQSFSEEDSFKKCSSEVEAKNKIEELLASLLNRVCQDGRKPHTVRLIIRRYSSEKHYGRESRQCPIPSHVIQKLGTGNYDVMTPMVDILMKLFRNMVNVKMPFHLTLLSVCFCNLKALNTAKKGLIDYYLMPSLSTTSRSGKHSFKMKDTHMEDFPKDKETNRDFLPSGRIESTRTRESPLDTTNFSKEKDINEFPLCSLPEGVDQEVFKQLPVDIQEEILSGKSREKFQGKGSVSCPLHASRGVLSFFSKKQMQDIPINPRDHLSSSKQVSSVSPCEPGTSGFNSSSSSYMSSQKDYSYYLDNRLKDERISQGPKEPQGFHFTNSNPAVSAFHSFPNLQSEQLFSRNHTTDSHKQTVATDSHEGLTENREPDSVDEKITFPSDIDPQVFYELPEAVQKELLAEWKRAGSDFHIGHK

T3: DNA polymerase iota (Pol ι), endogenous in ESCC cells (human (endogenous in TE-1 and ECA-109)) (UniProt Q9UNA4)
T3 sequence: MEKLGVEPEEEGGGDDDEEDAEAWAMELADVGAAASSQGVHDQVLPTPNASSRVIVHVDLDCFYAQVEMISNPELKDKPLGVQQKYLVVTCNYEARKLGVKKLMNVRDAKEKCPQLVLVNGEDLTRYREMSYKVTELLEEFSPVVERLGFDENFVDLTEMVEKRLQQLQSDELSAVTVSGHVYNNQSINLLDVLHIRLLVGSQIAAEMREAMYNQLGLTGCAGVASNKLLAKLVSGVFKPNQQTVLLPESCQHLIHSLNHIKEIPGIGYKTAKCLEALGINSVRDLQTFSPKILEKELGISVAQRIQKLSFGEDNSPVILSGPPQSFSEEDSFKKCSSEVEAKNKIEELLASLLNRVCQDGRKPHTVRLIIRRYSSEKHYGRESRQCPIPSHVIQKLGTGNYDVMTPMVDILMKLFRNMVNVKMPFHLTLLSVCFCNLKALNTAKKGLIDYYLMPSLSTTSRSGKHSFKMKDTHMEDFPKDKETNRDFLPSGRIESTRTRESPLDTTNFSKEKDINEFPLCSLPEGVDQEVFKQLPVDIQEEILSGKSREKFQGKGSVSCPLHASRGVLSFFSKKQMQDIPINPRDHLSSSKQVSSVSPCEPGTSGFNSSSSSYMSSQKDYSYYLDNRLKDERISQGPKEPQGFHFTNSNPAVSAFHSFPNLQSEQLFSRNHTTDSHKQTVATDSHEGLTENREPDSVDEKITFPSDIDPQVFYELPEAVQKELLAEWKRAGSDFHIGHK


Assays:
[1] = target: T1, Flag-Pol ι (DNA polymerase iota, wild type); assay: co-IP; HEK293T cells co-transfected with Flag-Pol ι (WT or deletion mutants), Myc-USP7 and HA-HIF-1α; M-PER lysis buffer; anti-Flag, anti-Myc and anti-HA agarose beads; western blot
GST-tagged Pol ι = target: T2, GST-tagged Pol ι; assay: pull-down; GST-tagged Pol ι from E. coli BL21 immobilized on glutathione sepharose beads, mixed with lysates of HEK293T cells expressing MYC-USP7 and HA-HIF-1α; western blot; only the target purified
HA-HIF-1α = HA-HIF-1α (UniProt Q16665); assay: co-IP; HEK293T cells co-transfected with Flag-Pol ι (WT or deletion mutants), Myc-USP7 and HA-HIF-1α; M-PER lysis buffer; anti-Flag, anti-Myc and anti-HA agarose beads; western blot
[2] = target: T3, DNA polymerase iota (Pol ι), endogenous in ESCC cells (human (endogenous in TE-1 and ECA-109)); assay: co-IP; endogenous proteins in TE-1 and ECA-109 cells; anti-HIF-1α antibody, protein G magnetic beads, rabbit IgG as negative control; cells under 20% O2 or 1% O2, with Pol ι/USP7 knockdown or overexpression
[3] = target: HIF-1α, endogenous in ESCC cells (human (endogenous in TE-1 and ECA-109)) (UniProt Q16665); assay: as above

binding [1]	binding (GST-tagged Pol ι)	binding (HA-HIF-1α)	binding [2]	binding [3]	Molecule
binds	binds				HA-HIF-1α (from UniProt Q16665 1-826)
binds	binds	binds			Myc-USP7 (from UniProt Q93009 1-1102) (enzyme)
			binds	binds	USP7, endogenous in ESCC cells (from UniProt Q93009 1-1102) (enzyme)
				binds	DNA polymerase iota (Pol ι), endogenous in ESCC cells (enzyme, UniProt Q9UNA4 1-740) MEKLGVEPEEEGGGDDDEEDAEAWAMELADVGAAASSQGVHDQVLPTPNASSRVIVHVDLDCFYAQVEMISNPELKDKPLGVQQKYLVVTCNYEARKLGVKKLMNVRDAKEKCPQLVLVNGEDLTRYREMSYKVTELLEEFSPVVERLGFDENFVDLTEMVEKRLQQLQSDELSAVTVSGHVYNNQSINLLDVLHIRLLVGSQIAAEMREAMYNQLGLTGCAGVASNKLLAKLVSGVFKPNQQTVLLPESCQHLIHSLNHIKEIPGIGYKTAKCLEALGINSVRDLQTFSPKILEKELGISVAQRIQKLSFGEDNSPVILSGPPQSFSEEDSFKKCSSEVEAKNKIEELLASLLNRVCQDGRKPHTVRLIIRRYSSEKHYGRESRQCPIPSHVIQKLGTGNYDVMTPMVDILMKLFRNMVNVKMPFHLTLLSVCFCNLKALNTAKKGLIDYYLMPSLSTTSRSGKHSFKMKDTHMEDFPKDKETNRDFLPSGRIESTRTRESPLDTTNFSKEKDINEFPLCSLPEGVDQEVFKQLPVDIQEEILSGKSREKFQGKGSVSCPLHASRGVLSFFSKKQMQDIPINPRDHLSSSKQVSSVSPCEPGTSGFNSSSSSYMSSQKDYSYYLDNRLKDERISQGPKEPQGFHFTNSNPAVSAFHSFPNLQSEQLFSRNHTTDSHKQTVATDSHEGLTENREPDSVDEKITFPSDIDPQVFYELPEAVQKELLAEWKRAGSDFHIGHK
